Data taken from PubChem BioAssay AID540256 (National Center for Advancing Translational Sciences (NCATS), 2011).
Hit rate of the full screen: of about 300,000 compounds, about 3,700 (1.2%) were called active. The inconclusive results got no clear call from the source; some entries with a clear call stand among them for comparison. Calls follow the shape of the full dose curve; tested in HEK293 cells. Where the call is inconclusive, the potency comes from a doubtful curve fit.

test: qHTS for Inhibitors of binding or entry into cells for Lassa Virus; settings: Lassa virus pseudotype entry inhibition, cell reporter; series mostly up to 37.9 µM; also: nearly all actives have a fitted effect of over 50% in size
Potency is read from the fitted curve at half-maximal effect.

Compound	Potency
COc1cc(CCC(=O)OCC(=O)Nc2ccc(Br)cc2F)cc(OC)c1OC	inconclusive: 14.1 µM [inhibitor, single point]
C=CCN1C(=O)NC(=O)/C(=C/c2ccc(N(C)C)c(Br)c2)C1=O	active: 7.94 µM
Cc1ccccc1OCC(=O)N/N=C/c1cccc(Oc2ccc([N+](=O)[O-])cc2[N+](=O)[O-])c1	inconclusive: 20 µM [inhibitor, single point]
O=C(O)CCC(=O)Nc1ccc(Oc2ncnc3cc(Cl)ccc23)nc1	inactive
Cc1nc2c(=O)[nH]c(=S)[nH]c2[nH]c1=O	inactive
O=C(N/N=C/c1ccc2c(c1)OCO2)C(O)c1ccccc1 (stereo not drawn)	inconclusive: 14.6 µM [activator, partial curve]
CCOC(=O)CNC(=O)C1CCC(CNS(=O)(=O)c2cccc3nsnc23)CC1 (stereo not drawn)	inconclusive: 2.82 µM [inhibitor, single point]
Cc1ccc(C(=O)NCCCN2CCOCC2)c(Cl)c1	inconclusive: 3.55 µM [activator, partial curve, poor fit]
CCCN1C(=O)c2[nH]nc(-c3ccccc3O)c2C1c1ccc(OCc2ccccc2)c(OCC)c1 (stereo not drawn)	inconclusive: 1.26 µM [inhibitor, full curve, poor fit]
Cc1ccc(N=Nc2c(C)[nH]n(C(N)=S)c2=O)cc1C	inconclusive: 6.51 µM [activator, full curve]
CC(C)CSc1nnc(-c2ccccc2)c(-c2ccccc2)n1	inactive
CN(CC(=O)NC1CCCCCC1)S(=O)(=O)c1ccc(F)cc1	inconclusive: 12.6 µM [activator, partial curve, poor fit]
CCOC(=O)c1ccc(N2CCN(c3ccccc3F)CC2)c(NC(=O)Nc2ccc(Cl)c(Cl)c2)c1	inconclusive: 5.62 µM [inhibitor, single point]
CCOC(=O)[C@@H]1CSCCS(=O)(=O)N1C(=O)[C@H](CC(C)C)NC(=O)OC(C)(C)C	inconclusive: 11.2 µM [activator, single point]
Cc1ccc(C(=O)Nc2cccc(C(=O)NCc3ccccc3)c2)o1	inconclusive: 32.6 µM [inhibitor, single point]
Cc1ccc(NC(=O)c2oc3ccc(S(=O)(=O)N4CCCCCC4)cc3c2C)cc1Cl	inactive
CCN(CC(=O)NCCc1ccc(S(N)(=O)=O)cc1)Cc1ccccc1	inactive
Cc1ccc2oc(=O)c3cc(C(=O)Nc4ccc(F)cc4F)sc3c2c1	inconclusive: 6.31 µM [inhibitor, single point]
COc1ccc(S(=O)(=O)N(C)C)cc1NC(=O)Cc1c[nH]c2ccccc12	inconclusive: 35.5 µM [inhibitor, single point]
COc1ccccc1OCCn1c(=S)[nH]c2ccccc21	inconclusive: 11.2 µM [inhibitor, partial curve, poor fit]
CCN(C(=O)c1cc2cc3ccc(C)cc3nc2o1)c1ccc(OC)cc1	inconclusive: 15.8 µM [inhibitor, single point]
Cc1csc(NC(=O)c2cc3c(s2)CCCCC3)n1	active: 2.24 µM

Looked up above.
Potency with Cc1csc(NC(=O)c2cc3c(s2)CCCCC3)n1 reads active: 2.24 µM
Potency with O=C(N/N=C/c1ccc2c(c1)OCO2)C(O)c1ccccc1 (stereo not drawn) reads inconclusive: 14.6 µM [activator, partial curve]
Potency with Cc1nc2c(=O)[nH]c(=S)[nH]c2[nH]c1=O reads inactive

(more compounds)

Compound	Potency
COc1ccc(OC)c(C(C[N+](=O)[O-])c2c(C)cc3ccccn23)c1 (stereo not drawn)	inconclusive: 35.5 µM [inhibitor, single point]
CCCN(CC(=O)Nc1ccc(F)c(F)c1F)C(=O)CCc1nc2ccccc2c(=O)[nH]1	inactive
COc1ccc2[nH]c(C)c(CCNC(=S)Nc3cccc(C)c3)c2c1	inconclusive: 18.4 µM [inhibitor, single point]
O=[N+]([O-])c1cccc(N=NN(CCO)c2cccc([N+](=O)[O-])c2)c1	inactive
Cc1ccc(NC(=O)c2ccc(NS(=O)(=O)c3cccc4cccnc34)cc2)cc1	inconclusive: 1 µM [inhibitor, full curve, poor fit]
CCN(CC)CCNC(=O)C(=O)NCC(c1cccnc1)N1CCN(c2ccccc2)CC1 (stereo not drawn)	inactive
CCC(=O)c1ccc(OCC(O)Cn2c(C)nc3ccccc32)cc1 (stereo not drawn)	inconclusive: 0.794 µM [activator, single point]
Brc1ccc(OCc2ccccc2)c(CNCc2ccncc2)c1	inconclusive: 18.3 µM [inhibitor, partial curve]
Cc1cccc(N(C)C(CNS(=O)(=O)c2ccccc2)c2ccccc2)c1 (stereo not drawn)	inactive
CCNS(=O)(=O)c1ccc(NC(=O)Nc2cccc(OC)c2)cc1	inconclusive: 29.1 µM [inhibitor, single point]
N#Cc1ccc(NC(=O)Cn2c3[n+](c4ccc(C(F)(F)F)cc42)CCCCC3)cc1	inconclusive: 10 µM [activator, partial curve, poor fit]
COc1ccc(/C=N/NC(=O)CCn2cnc(-c3ccccc3)c2-c2ccccc2)cc1OC	inconclusive: 11.2 µM [inhibitor, partial curve]
O=C(COC(=O)CCC(=O)c1ccc(F)cc1)NCCc1ccccc1	inconclusive: 1.78 µM [inhibitor, partial curve, poor fit]
O=c1[nH]c2ccccc2nc1/C=C(\O)C1CC1	inconclusive: 17.8 µM [activator, single point]
S=C(Nc1ccc(Cl)cc1Cl)N1CCCCC1	inactive
COc1ccc(/C=N/NC(=O)c2ccncc2)cc1CN1CCOCC1	inactive
COc1ccccc1-c1nc(C#N)c(N2CCC(Cc3ccccc3)CC2)o1	inconclusive: 7.94 µM [inhibitor, partial curve, poor fit]
CCCCC(=O)N/N=C/c1c(O)n(CCCC)c(=S)[nH]c1=O	inconclusive: 8.91 µM [inhibitor, partial curve, poor fit]
COC(=O)c1ccc(C(=O)OC)c(NC(=O)CN(C)Cc2ccccc2)c1	inconclusive: 12.6 µM [inhibitor, partial curve, poor fit]
CN1/C(=C\P(=O)(N(C)C)N(C)C)C(C)(C)c2ccccc21	inconclusive: 23.1 µM [inhibitor, single point]
Cc1ccc(C)c(Nc2nc(-c3ccccc3)c3cc(Br)ccc3n2)c1	inactive
